The record followed here is the supplement of paper PMC11150407.

Each structure is given as a SMILES string. In all, about 3,000 compounds went through this assay and about 45 (2%) showed an effect of 50% or more. Some of the results follow.

The test system of the assay is MOLM1 and UCSD/AML1 (averaged). In words: cell viability relative to DMSO control (POC); higher = less growth inhibition. The following applies: 1 µM; 72 h. The method, then:
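Primary viability screen in the 3q26 EVI1-high AML cell lines MOLM1 and UCSD/AML1, compounds at 1 uM for 72 h. ATP CellTiter-Glo read-out given as percent viable over DMSO control (POC), averaged over duplicates. This mapping covers the TimTec NDL-3000 natural derivative library, whose compounds are identified by TimTec catalogue codes (ST...).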
`CC(C)=C(CC(=O)O)C(=O)O`: the cell viability amounted to 104%. With `COc1ccc(CCNC(=O)C2Cc3ccccc3CN2S(=O)(=O)c2cccs2)cc1OC` (stereo unspecified), the cell viability was 90.9%. In the case of `COc1cc(CNC(=O)c2ccc([N+](=O)[O-])cc2)cc(OC)c1OC`, the cell viability came out at 88.7%.

As for `CS(=O)(=O)c1ccc2nc(NC(=O)CN3CCN(CCO)CC3)sc2c1`, the cell viability was found to be 87.9%. On to `Cc1cc2c(C(C)C)c(O)c(O)c(/C=N/N3CCN(C)CC3)c2c(O)c1-c1c(C)cc2c(C(C)C)c(O)c(O)c(/C=N/N3CCN(C)CC3)c2c1O`, for which the cell viability was determined as 4.5%. Consider `Cc1c(Cl)cccc1NC(=O)Cn1c(=O)cc(C(=O)N(C)C)c2ccccc21`, for which the cell viability stood at 108%.

With `COc1cc(C(=O)NCc2ccc3c(c2)OCO3)c(Br)c(OC)c1OC`, the cell viability was 105%. `Cc1ccc(C)c(NC(=O)CN2CCN(Cc3cc(=O)oc4cc(C)ccc34)CC2)c1`: the cell viability is 98.3%. The value for `N[C@@H](CCC(=O)Nc1cccc2ccccc12)C(=O)O` was 96.7%; that for `Cc1ccc(C2CC(=O)c3cccc(Cl)c3O2)cc1` (stereo unspecified) was 59.1%.

For `COc1ccc(C2c3[nH]c4ccccc4c3CCN2CC(=O)Nc2cccc3ccccc23)cc1` (stereo unspecified), the cell viability came to 85%. The figure for `O=c1[nH]cc(NCCCO)c(=O)[nH]1` is 101%; for `CCOc1cc(C2C(C(=O)OCCc3ccccc3)=C(C)NC3=C2C(=O)CCC3)cc(Br)c1O` (stereo unspecified) it is 110%. For the compound `CC(=O)COc1ccc2c(=O)c(Oc3ccccc3Cl)coc2c1`, the cell viability stood at 117%. `CCOc1ccc(C2c3[nH]c4ccccc4c3CCN2C(=O)c2cccc(Br)c2)cc1` (stereo unspecified): the cell viability came to 90.9%. Turning to `CCCCCC(CCC#N)C(=O)O` (stereo unspecified), the cell viability stood at 106%. Turning to `Cc1cc(C)c2c(N)c(C(=O)N3CCC[C@H]3C(=O)O)sc2n1`, the cell viability amounted to 103%. As for `Cc1[nH]c2ccccc2c1CCNC(=O)/C(=C/c1ccccc1)NC(=O)c1cccc(Br)c1`, the cell viability was 91.8%. As to `CCOc1cc2c(cc1OCC)C(c1cccc(OC)c1O)NCC2` (stereo unspecified), the cell viability was 93.2%. For the compound `CCCc1ccc(OCCn2c(C)c(C(=O)OC)c3cc(O)c4ccccc4c32)cc1`, the cell viability was 91.3%. The figure for `O=C(Nc1ccc(Br)cc1)C1Cc2ccccc2CN1S(=O)(=O)c1cccs1` (stereo unspecified) is 94.1%; for `COc1ccc(C(=O)Nc2sc3c(c2C(N)=O)CCCCC3)cc1OC` it is 104%; for `CCOc1cc2c(cc1OC)C(c1ccc3c(c1)OCO3)NCC2` (stereo unspecified) it is 93.7%. The figure for `O=C(/C=C/C=C/c1ccccc1)/C=C/C=C/c1ccccc1` is 100%; for `COc1cc(C(=O)CC2(O)C(=O)N(Cc3c(Cl)cccc3Cl)c3ccccc32)cc(OC)c1OC` (stereo unspecified) it is 99.8%; for `COc1ccc(C(=O)Nc2sc(Nc3ccc(C)cc3)nc2C(N)=O)cc1OC` it is 101%.

For the compound `CCN(CC)C(=O)c1cc(=O)n(CC(=O)Nc2ccc3c(c2)OCCO3)c2ccccc12`, the cell viability stood at 100%. Turning to `COc1ccc(C(=O)/C=C/c2ccc(OC)c(COc3cccc(C)c3C)c2)cc1`, the cell viability was found to be 104%. With `COc1cc(C(=O)Nc2cccc(C#N)c2)cc(OC)c1OC`, the cell viability came to 102%.

On to `Cc1cc2c(c(O)c1-c1c(C)cc3c(c1O)/C(=C/Nc1ccc(S(=O)(=O)Nc4nccs4)cc1)C(=O)C(O)=C3C(C)C)/C(=C/Nc1ccc(S(=O)(=O)Nc3nccs3)cc1)C(=O)C(O)=C2C(C)C`, for which the cell viability is 97.8%.

In the case of `Cc1[nH]c2c(C)cccc2c(=O)c1CN1CCCCC1C` (stereo unspecified), the cell viability was 94.6%.

Turning to `CCCCc1ccc(NCCC(=O)c2cc3ccccc3oc2=O)cc1`, the cell viability was 102%. In the case of `O=C(O)C1Cc2ccccc2CN1` (stereo unspecified), the cell viability came out at 104%. Regarding `CCn1cc(/C=C\C(=O)c2ccc3c(c2)OCO3)cn1`, the cell viability worked out at 83.6%. For `O=C(CN1CCc2ccccc2C1)Nc1cc(C(F)(F)F)ccc1Cl`, the cell viability came to 105%.

For the compound `Cc1nn(-c2ccccc2)c(C)c1CN1CCN(C(=O)c2ccc3c(c2)OCO3)CC1`, the cell viability worked out at 98.5%. As for `COc1ccc(CC(C)(C)O)cc1OC`, the cell viability came out at 96.5%. `Cc1ccc(C(=O)/C=C/c2ccc(Cl)cc2Cl)cc1`: the cell viability is 113%. Consider `CCOCCOC(=O)C1=C(C)NC2=C(C(=O)CC(C)(C)C2)C1c1cc(Cl)c(O)c(OC)c1` (stereo unspecified), for which the cell viability came to 104%. With `COc1cc(C2C3CCCCC3(O)CCN2CC(=O)Nc2ccc(C)cc2)ccc1O` (stereo unspecified), the cell viability is 87.9%.

For `CC(C)(C)OC(=O)N[C@@H](Cc1ccc(O)cc1)C(=O)O`, the cell viability stood at 107%. In the case of `NC(=O)C(Cc1ccccc1)NC(=O)c1ccc2c(c1)OCO2` (stereo unspecified), the cell viability turned out to be 92.1%. Turning to `COc1cc(OC)cc(C(=O)Nc2ccccc2C(=O)N2CCCC2)c1`, the cell viability was determined as 100%. As for `Cc1c(-c2ccc(O)cc2)c(=O)oc2c(Br)cc(Cl)cc12`, the cell viability was 89.8%. For `COc1cc(/C=C2/C(=O)N(c3nn[nH]n3)N=C2C)ccc1O`, the cell viability is 102%.

Consider `COc1ccc(S(=O)(=O)NCCc2c(C)[nH]c3ccccc23)cc1`, for which the cell viability was found to be 99.9%.

As for `CCN(CC)CCCNc1nc(-c2ccc(Cl)cc2)nc2ccccc12`, the cell viability stood at 64.2%. As for `CC12CCC(=O)N1C(C(=O)O)CS2` (stereo unspecified), the cell viability was 101%. The figure for `COc1ccc(/C(O)=C2/C(=O)C(=O)NC2c2ccc(O)c(OC)c2)cc1` (stereo unspecified) is 97.9%. As for `Cc1c(C(=O)O)[nH]c(=O)[nH]c1=O`, the cell viability is 98.4%.

As for `Cc1ccc(NC(=O)CSc2nc3c(=O)[nH]cnc3n2C)cc1`, the cell viability is 104%. Consider `O=C(CNC(=O)c1ccccc1)N[C@@H](Cc1ccccc1)C(=O)O`, for which the cell viability was determined as 100%. Turning to `CCOC(=O)c1sc(NC(=O)c2cc(OC)cc(OC)c2)c(C#N)c1C`, the cell viability is 98.5%. The value for `CCCCCC[n+]1ccccc1/C=C/c1ccc2c(c1)OCO2` was 52.6%.

`C=C(C)C1CCC2(COC(=O)CCC(=O)O)CCC3(C)C(CCC4C5(C)CCC(OC(=O)CCC(=O)O)C(C)(C)C5CCC43C)C12` (stereo unspecified): the cell viability stood at 97.5%. For `CCCNC(=O)c1nn(CC)cc1NC(=O)c1ccc2c(c1)OCCO2`, the cell viability was determined as 93%.

In the case of `COC(=O)C1=C(N)Oc2c(oc(CO)cc2=O)C1c1cccc(Cl)c1Cl` (stereo unspecified), the cell viability is 105%. As to `CC1(C)OC2OC(CO)C3OC(C)(C)OC3C2O1` (stereo unspecified), the cell viability stood at 101%.

With `CC(/C=C\c1ccc2c(c1)OCO2)=N/NC(=O)c1cncc(Br)c1`, the cell viability stood at 107%. Regarding `Cc1oc2ccc(O)cc2c1C(=O)O`, the cell viability was 105%.

With `COc1ccc(C(=O)CCN(C)C)cc1OC`, the cell viability is 59.8%. In the case of `COc1ccc(C(=O)Nc2cccc(C(=O)OCC(=O)c3ccc(C)cc3)c2)cc1OC`, the cell viability amounted to 105%. Regarding `COc1ccc(/C=C/C(=O)Nc2ccc(OC)c(OC)c2)cc1OC`, the cell viability turned out to be 91.3%.

For `CCOc1ccc(-c2cc(-c3cc(OC)c(OC)c(OC)c3)[nH]c(=O)c2C#N)cc1`, the cell viability came to 99.9%.

Regarding `Cc1[nH]c2ccc(F)cc2c1CCNC(=O)c1cc([N+](=O)[O-])cc([N+](=O)[O-])c1`, the cell viability is 102%. Consider `N#CC1=C(N)Oc2cc(O)ccc2C1c1cccc(C(F)(F)F)c1` (stereo unspecified), for which the cell viability stood at 22.1%. Consider `COc1cccc(CSc2nc3c(=O)[nH]cnc3n2-c2ccc(C)cc2)c1`, for which the cell viability is 93.4%. `COc1ccc(NC(=O)CSc2nc3c(=O)[nH]cnc3n2C)cc1Cl`: the cell viability is 104%.

For the compound `COC(=O)c1ccc2c(c1)C(=O)/C(=C\c1cc(OC)c(OC)c(OC)c1)O2`, the cell viability turned out to be 96.4%. The figure for `CC(C)(C)c1ccc(-c2nc(Nc3ccc(C(=O)O)cc3)c3ccccc3n2)cc1` is 91.5%; for `CCOc1cc(C2C(C(=O)OCCOC)=C(C)NC3=C2C(=O)CC(c2ccccc2)C3)cc(Br)c1O` (stereo unspecified) it is 92.4%. With `Cc1cc(C)c(C(=O)O)c(N)n1`, the cell viability turned out to be 97.4%. `O=C(c1cccc(S(=O)(=O)N2CCCCCC2)c1)N1c2ccccc2Sc2ccccc21`: the cell viability was found to be 82.2%.

As for `COc1ccc2c(c1OC)C(=O)OC2C(C(C)=O)C(C)=O` (stereo unspecified), the cell viability amounted to 104%. For the compound `COc1ccc(C(=O)CSc2cccc3cccnc23)cc1OC`, the cell viability is 104%. With `COc1ccc(C2C3CCCCC3(O)CCN2C(=O)c2cccc(F)c2)c(OC)c1` (stereo unspecified), the cell viability was 91.1%. Regarding `O=c1c(Br)coc2ccc(F)cc12`, the cell viability was found to be 85.1%.

Turning to `Cc1ccc(NC(=O)CCC(=O)O)cc1`, the cell viability was 105%.

On to `CC(N)C(=O)NC(C)C(=O)O` (stereo unspecified), for which the cell viability was 100%. For the compound `O=c1c(-c2ccccc2)coc2c(CN3CCCCC3)c(O)ccc12`, the cell viability is 96%. For the compound `CCOC(=O)N/N=C1/C=C2CCC3C(CC[C@@]4(C)C3CC3CCCC[C@]34C(C)=O)[C@@]2(C)CC1` (stereo partly specified), the cell viability came out at 92.4%. The value for `COc1cc(C(=O)N2CCN(C(=O)c3cccc(Cl)c3)CC2)cc(OC)c1OC` was 102%; that for `Cn1c(=O)c2c(nc(NCC(O)c3ccccc3)n2C)n(C)c1=O` (stereo unspecified) was 97.2%; that for `CC1(C)OC(c2cccc(NC(=O)c3ccc4c(c3)OCO4)c2)OC1(C)C` was 91.8%. For `Cc1ccc(-n2c(SCc3cccc(C)c3)nc3c(=O)[nH]cnc32)cc1`, the cell viability came out at 120%.

Take `COc1ccccc1N1CCN(C(=O)CSc2nc3ccccc3c(=O)[nH]2)CC1`: the cell viability turned out to be 100%.

Regarding `COc1ccccc1/C=C/C(=O)c1ccc(O)cc1O`, the cell viability is 92.6%.

Turning to `CC1NC(C(=O)O)Cc2c1[nH]c1ccccc21` (stereo unspecified), the cell viability amounted to 112%. As to `CCCc1cc(=O)oc2cc(OC(C(=O)OC)c3ccccc3)ccc12` (stereo unspecified), the cell viability is 106%.

`Cc1ccc(-n2c(SCc3nc(-c4ccccc4C)oc3C)nc3c(=O)[nH]cnc32)cc1`: the cell viability turned out to be 110%. As for `CCOc1ccc(-c2c(C)c3cc(F)ccc3oc2=O)cc1`, the cell viability was found to be 56.1%. On to `COc1cc(C2NC(C(=O)O)CS2)cc(OC)c1O` (stereo unspecified), for which the cell viability was 98.1%. On to `Cc1ccc(/C=C/C(=O)c2ccc3c(c2)OCO3)s1`, for which the cell viability worked out at 94.4%. For `CC(C)OC(=O)C1=C(N)Oc2c(oc(CO)cc2=O)C1c1ccc(F)cc1` (stereo unspecified), the cell viability was 92.6%. As for `COc1ccc(C(=O)N2CCCc3cccc(OC)c32)cc1OC`, the cell viability was found to be 90.1%. Take `CCCCCCCCCCCCCCCC(=O)OC(CC(=O)O)C[N+](C)(C)C` (stereo unspecified): the cell viability came to 107%. For the compound `COc1cc(C2=NOC(=O)/C2=C\c2sccc2C)cc(OC)c1OC`, the cell viability came to 98.7%. As for `COc1cc(NC(=O)Cn2c(=O)cc(C(=O)N3CCCCC3)c3ccccc32)cc(OC)c1`, the cell viability worked out at 97.1%.

For `CCOc1ccccc1C(=O)NCCc1c(C)[nH]c2ccccc12`, the cell viability was determined as 105%. On to `COc1cc(C2Nc3ccc4ccccc4c3C3=C2C(=O)CC(C)(C)C3)ccc1OCc1ccccc1` (stereo unspecified), for which the cell viability is 105%. Turning to `O=C(O)c1ccc2[nH]c3c(c2c1)CCCC3`, the cell viability came to 95.7%. The value for `COC(=O)C1(C)CCC2(C)CCC3(C)C(=CC(=O)C4C5(C)CCC(O)C(C)(C)C5CCC43C)C2C1` (stereo unspecified) was 90%.

Consider `COc1cc(CCC(=O)Nc2c(C)c(C)c3c(c2C)NC(=O)CO3)cc(OC)c1OC`, for which the cell viability was 94.8%.

As for `COc1ccc(C(=O)NCC(=O)NN)cc1OC`, the cell viability is 104%. For `COC(=O)C1=C(N)Oc2c(oc(CO)cc2=O)C1c1ccc(Cl)cc1Cl` (stereo unspecified), the cell viability was 101%. With `Cc1sc(N)nc1-c1c[nH]c2ccccc12`, the cell viability came out at 99.1%.

For orientation: cell viability means a read-out of living cells in per cent, often relative to untreated cells.
